From the supplement of paper PMC8728848
Some of the results follow.

Legend:
Assay in all cases: glycan array binding signal (z-score within array); higher = stronger binding
Conditions in all cases: glycan notation: IUPAC condensed, linker removed
[1] = target: GlcNAc(b1-3)Gal(b1-3)GalNAc
How it was run: (§1)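 The binding signal is a Z-score computed within each array. Data were drawn from 3228 arrays in the Consortium for Functional Glycomics database, restricted to those with a known protein sequence. Scores were averaged over arrays of the same protein sequence at different concentrations or buffers, and over linkers, and negative values can be taken as non-binding.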

[2] = target: GlcNAc(b1-3)Gal(b1-4)Glc
How it was run: as §1

[3] = target: GlcNAc(b1-3)Gal(b1-4)GlcNAc
How it was run: as §1

[4] = target: GlcNAc(b1-3)Gal(b1-4)GlcNAc(b1-2)Man(a1-3)[GlcNAc(b1-3)Gal(b1-4)GlcNAc(b1-2)Man(a1-6)]Man(b1-4)GlcNAc(b1-4)GlcNAc
How it was run: as §1

[5] = target: GlcNAc(b1-3)Gal(b1-4)GlcNAc(b1-2)Man(a1-3)[GlcNAc(b1-3)Gal(b1-4)GlcNAc(b1-2)Man(a1-6)]Man(b1-4)GlcNAc(b1-4)[Fuc(a1-6)]GlcNAc
How it was run: as §1

[6] = target: GlcNAc(b1-3)Gal(b1-4)GlcNAc(b1-2)[GlcNAc(b1-3)Gal(b1-4)GlcNAc(b1-6)]Man(a1-6)[GlcNAc(b1-3)Gal(b1-4)GlcNAc(b1-2)Man(a1-3)]Man(b1-4)GlcNAc(b1-4)GlcNAc
How it was run: as §1

[7] = target: GlcNAc(b1-3)Gal(b1-4)GlcNAc(b1-3)Gal(b1-4)GlcNAc
How it was run: as §1

[8] = target: GlcNAc(b1-3)Gal(b1-4)GlcNAc(b1-3)Gal(b1-4)GlcNAc(b1-2)Man(a1-3)[GlcNAc(b1-3)Gal(b1-4)GlcNAc(b1-3)Gal(b1-4)GlcNAc(b1-2)Man(a1-6)]Man(b1-4)GlcNAc(b1-4)GlcNAc
How it was run: as §1

[9] = target: GlcNAc(b1-3)Gal(b1-4)GlcNAc(b1-3)Gal(b1-4)GlcNAc(b1-2)Man(a1-3)[GlcNAc(b1-3)Gal(b1-4)GlcNAc(b1-3)Gal(b1-4)GlcNAc(b1-2)Man(a1-6)]Man(b1-4)GlcNAc(b1-4)[Fuc(a1-6)]GlcNAc
How it was run: as §1

[10] = target: GlcNAc(b1-3)Gal(b1-4)GlcNAc(b1-3)Gal(b1-4)GlcNAc(b1-2)[GlcNAc(b1-3)Gal(b1-4)GlcNAc(b1-3)Gal(b1-4)GlcNAc(b1-6)]Man(a1-6)[GlcNAc(b1-3)Gal(b1-4)GlcNAc(b1-3)Gal(b1-4)GlcNAc(b1-2)Man(a1-3)]Man(b1-4)GlcNAc(b1-4)[Fuc(a1-6)]GlcNAc
How it was run: as §1

[11] = target: GlcNAc(b1-3)Gal(b1-4)GlcNAc(b1-3)Gal(b1-4)GlcNAc(b1-3)Gal(b1-4)GlcNAc(b1-2)Man(a1-3)[GlcNAc(b1-3)Gal(b1-4)GlcNAc(b1-3)Gal(b1-4)GlcNAc(b1-3)Gal(b1-4)GlcNAc(b1-2)Man(a1-6)]Man(b1-4)GlcNAc(b1-4)GlcNAc
How it was run: as §1

[12] = target: GlcNAc(b1-3)Gal(b1-4)GlcNAc(b1-3)Gal(b1-4)GlcNAc(b1-3)Gal(b1-4)GlcNAc(b1-2)Man(a1-3)[GlcNAc(b1-3)Gal(b1-4)GlcNAc(b1-3)Gal(b1-4)GlcNAc(b1-3)Gal(b1-4)GlcNAc(b1-2)Man(a1-6)]Man(b1-4)GlcNAc(b1-4)[Fuc(a1-6)]GlcNAc
How it was run: as §1

[13] = target: GlcNAc(b1-3)Gal(b1-4)GlcNAc(b1-3)Gal(b1-4)GlcNAc(b1-3)Gal(b1-4)GlcNAc(b1-2)[GlcNAc(b1-3)Gal(b1-4)GlcNAc(b1-3)Gal(b1-4)GlcNAc(b1-3)Gal(b1-4)GlcNAc(b1-6)]Man(a1-6)[GlcNAc(b1-3)Gal(b1-4)GlcNAc(b1-3)Gal(b1-4)GlcNAc(b1-3)Gal(b1-4)GlcNAc(b1-2)Man(a1-3)]Man(b1-4)GlcNAc(b1-4)[Fuc(a1-6)]GlcNAc
How it was run: as §1

[14] = target: GlcNAc(b1-3)Gal(b1-4)GlcNAc(b1-3)Gal(b1-4)GlcNAc(b1-3)Gal(b1-4)GlcNAc(b1-3)Gal(b1-4)GlcNAc(b1-2)Man(a1-3)[GlcNAc(b1-3)Gal(b1-4)GlcNAc(b1-3)Gal(b1-4)GlcNAc(b1-3)Gal(b1-4)GlcNAc(b1-3)Gal(b1-4)GlcNAc(b1-2)Man(a1-6)]Man(b1-4)GlcNAc(b1-4)GlcNAc
How it was run: as §1

[15] = target: GlcNAc(b1-3)Gal(b1-4)GlcNAc(b1-3)Gal(b1-4)GlcNAc(b1-3)Gal(b1-4)GlcNAc(b1-3)Gal(b1-4)GlcNAc(b1-2)Man(a1-3)[GlcNAc(b1-3)Gal(b1-4)GlcNAc(b1-3)Gal(b1-4)GlcNAc(b1-3)Gal(b1-4)GlcNAc(b1-3)Gal(b1-4)GlcNAc(b1-2)Man(a1-6)]Man(b1-4)GlcNAc(b1-4)[Fuc(a1-6)]GlcNAc
How it was run: as §1

[16] = target: GlcNAc(b1-3)Gal(b1-4)GlcNAc(b1-3)Gal(b1-4)GlcNAc(b1-3)Gal(b1-4)GlcNAc(b1-3)Gal(b1-4)GlcNAc(b1-2)[GlcNAc(b1-3)Gal(b1-4)GlcNAc(b1-3)Gal(b1-4)GlcNAc(b1-3)Gal(b1-4)GlcNAc(b1-3)Gal(b1-4)GlcNAc(b1-6)]Man(a1-6)[GlcNAc(b1-3)Gal(b1-4)GlcNAc(b1-3)Gal(b1-4)GlcNAc(b1-3)Gal(b1-4)GlcNAc(b1-3)Gal(b1-4)GlcNAc(b1-2)Man(a1-3)]Man(b1-4)GlcNAc(b1-4)[Fuc(a1-6)]GlcNAc
How it was run: as §1

[17] = target: GlcNAc(b1-3)Gal(b1-4)GlcNAc(b1-3)Gal(b1-4)GlcNAc(b1-3)GalNAc
How it was run: as §1

[18] = target: GlcNAc(b1-3)Gal(b1-4)GlcNAc(b1-3)GalNAc
How it was run: as §1

[19] = target: GlcNAc(b1-3)Gal(b1-4)GlcNAc(b1-3)[GlcNAc(b1-3)Gal(b1-4)GlcNAc(b1-3)]GalNAc
How it was run: as §1

[20] = target: GlcNAc(b1-3)Gal(b1-4)GlcNAc(b1-6)[Gal(b1-3)]GalNAc
How it was run: as §1

[21] = target: GlcNAc(b1-3)Gal(b1-4)GlcNAc(b1-6)[GlcNAc(b1-3)Gal(b1-3)]GalNAc
How it was run: as §1

[22] = target: GlcNAc(b1-3)Gal(b1-4)GlcNAc(b1-6)[GlcNAc(b1-3)]Gal(b1-4)GlcNAc
How it was run: as §1

[23] = target: GlcNAc(b1-3)GalNAc
How it was run: as §1

[24] = target: GlcNAc(b1-3)Man
How it was run: as §1

[25] = target: GlcNAc(b1-3)[GlcNAc(b1-4)][GlcNAc(b1-6)]GlcNAc
How it was run: as §1

[26] = target: GlcNAc(b1-3)[GlcNAc(b1-6)]Gal(b1-4)GlcNAc
How it was run: as §1

[27] = target: GlcNAc(b1-3)[GlcNAc(b1-6)]GalNAc
How it was run: as §1

[28] = target: GlcNAc(b1-4)Gal(b1-4)GlcNAc
How it was run: as §1

[29] = target: GlcNAc(b1-4)GlcNAc
How it was run: as §1

[30] = target: GlcNAc(b1-4)GlcNAc(b1-4)GlcNAc
How it was run: as §1

[31] = target: GlcNAc(b1-4)GlcNAc(b1-4)GlcNAc(b1-4)GlcNAc(b1-4)GlcNAc
How it was run: as §1

[32] = target: GlcNAc(b1-4)GlcNAc(b1-4)GlcNAc(b1-4)GlcNAc(b1-4)GlcNAc(b1-4)GlcNAc
How it was run: as §1

[33] = target: GlcNAc(b1-4)[GlcNAc(b1-6)]GalNAc
How it was run: as §1

[34] = target: GlcNAc(b1-6)Gal(b1-4)GlcNAc
How it was run: as §1

[35] = target: GlcNAc(b1-6)GalNAc
How it was run: as §1

[36] = target: GlcNAc6S(b1-3)Gal(b1-4)GlcNAc
How it was run: as §1

[37] = target: Kdn(a2-3)Gal(b1-3)GalNAc
How it was run: as §1

[38] = target: Kdn(a2-3)Gal(b1-3)GlcNAc
How it was run: as §1

[39] = target: Kdn(a2-3)Gal(b1-4)Glc
How it was run: as §1

[40] = target: Kdn(a2-3)Gal(b1-4)GlcNAc
How it was run: as §1

[41] = target: Kdn(a2-3)Gal(b1-4)[Fuc(a1-3)]GlcNAc
How it was run: as §1

[42] = target: Kdn(a2-6)Gal(b1-4)GlcNAc
How it was run: as §1

[43] = target: Man(a1-2)Man(a1-2)Man(a1-3)Man
How it was run: as §1

[44] = target: Man(a1-2)Man(a1-2)Man(a1-6)[Man(a1-3)]Man
How it was run: as §1

[45] = target: Man(a1-2)Man(a1-3)Man
How it was run: as §1

B1: EfCBM33A (Enterococcus faecalis), Q838S1 (protein)
chain: MKKSLLTIVLAFSFVLGGAALAPTVSEAHGYVASPGSRAFFGSSAGGNLNTNVGRAQWEPQSIEAPKNTFITGKLASAGVSGFEPLDEQTATRWHKTNITTGPLDITWNLTAQHRTASWDYYITKNGWNPNQPLDIKNFDKIASIDGKQEVPNKVVKQTINIPTDRKGYHVIYAVWGIGDTVNAFYQAIDVNIQ
Question: How did the “glycan array binding signal (z-score)” value [1] turn out when B1 was run?
Answer: 0.666

Question: What about the “glycan array binding signal (z-score)” value [2] of the same binder?
Answer: -0.475

Question: What about the “glycan array binding signal (z-score)” value [3] of the same binder?
Answer: -0.604

Question: What about the “glycan array binding signal (z-score)” value [4] of the same binder?
Answer: -0.031

Question: What about the “glycan array binding signal (z-score)” value [5] of the same binder?
Answer: 0.113

Question: What about the “glycan array binding signal (z-score)” value [6] of the same binder?
Answer: 2.03

Question: What about the “glycan array binding signal (z-score)” value [7] of the same binder?
Answer: -0.171

Question: And the “glycan array binding signal (z-score)” value [8]?
Answer: 0.794

Question: What about the “glycan array binding signal (z-score)” value [9] of the same binder?
Answer: 0.272

Question: What about the “glycan array binding signal (z-score)” value [10] of the same binder?
Answer: 0.957

Question: And the “glycan array binding signal (z-score)” value [11]?
Answer: 0.649

Question: What about the “glycan array binding signal (z-score)” value [12] of the same binder?
Answer: 0.39

Question: And the “glycan array binding signal (z-score)” value [13]?
Answer: 1.26

Question: And the “glycan array binding signal (z-score)” value [14]?
Answer: 0.549

Question: And the “glycan array binding signal (z-score)” value [15]?
Answer: 4.24

Question: What about the “glycan array binding signal (z-score)” value [16] of the same binder?
Answer: 1.38

Question: And the “glycan array binding signal (z-score)” value [17]?
Answer: 0.242

Question: And the “glycan array binding signal (z-score)” value [18]?
Answer: 0.02

Question: And the “glycan array binding signal (z-score)” value [19]?
Answer: 0.187

Question: What about the “glycan array binding signal (z-score)” value [20] of the same binder?
Answer: 0.986

Question: What about the “glycan array binding signal (z-score)” value [21] of the same binder?
Answer: -0.633

Question: What about the “glycan array binding signal (z-score)” value [22] of the same binder?
Answer: 0.14

Question: What about the “glycan array binding signal (z-score)” value [23] of the same binder?
Answer: -0.018

Question: What about the “glycan array binding signal (z-score)” value [24] of the same binder?
Answer: -0.525

Question: What about the “glycan array binding signal (z-score)” value [25] of the same binder?
Answer: -1.08

Question: And the “glycan array binding signal (z-score)” value [26]?
Answer: -0.392

Question: And the “glycan array binding signal (z-score)” value [27]?
Answer: -0.941

Question: What about the “glycan array binding signal (z-score)” value [28] of the same binder?
Answer: -0.997

Question: And the “glycan array binding signal (z-score)” value [29]?
Answer: -0.683

Question: What about the “glycan array binding signal (z-score)” value [30] of the same binder?
Answer: -0.852

Question: And the “glycan array binding signal (z-score)” value [31]?
Answer: -1.5

Question: And the “glycan array binding signal (z-score)” value [32]?
Answer: 0.083

Question: What about the “glycan array binding signal (z-score)” value [33] of the same binder?
Answer: -1.06

Question: And the “glycan array binding signal (z-score)” value [34]?
Answer: 0.278

Question: And the “glycan array binding signal (z-score)” value [35]?
Answer: -0.171

Question: What about the “glycan array binding signal (z-score)” value [36] of the same binder?
Answer: -0.765

Question: And the “glycan array binding signal (z-score)” value [37]?
Answer: 0.216

Question: And the “glycan array binding signal (z-score)” value [38]?
Answer: 0.484

Question: What about the “glycan array binding signal (z-score)” value [39] of the same binder?
Answer: -0.213

Question: What about the “glycan array binding signal (z-score)” value [40] of the same binder?
Answer: 1.86

Question: What about the “glycan array binding signal (z-score)” value [41] of the same binder?
Answer: -0.769

Question: And the “glycan array binding signal (z-score)” value [42]?
Answer: 0.328

Question: And the “glycan array binding signal (z-score)” value [43]?
Answer: -0.162

Question: And the “glycan array binding signal (z-score)” value [44]?
Answer: -0.018

Question: And the “glycan array binding signal (z-score)” value [45]?
Answer: -1.02
